Results taken from paper PMC11955550.
Results are given in words; binding and its absence hold for the method and conditions named. Some binding calls cover weakened binding; strength is not graded here.

Key:
wild-type DNAJB1 (human) = wild-type DNAJB1 (human) (UniProt P25685); assay: cryo-EM structure; single-particle helical reconstruction of αSyn fibrils decorated with WT DNAJB1 or ΔJ-DNAJB1 in HD buffer; mask on the decoration of one protofilament; low resolution (~14 Å, ~22 Å); both purified
[1] = target: ΔJ-DNAJB1 (truncated DNAJB1 lacking the J-domain and G/F linker) (human) (UniProt P25685); assay: as above

binding (wild-type DNAJB1 (human)) | binding [1] | Substance
binds | – | wild-type DNAJB1 (from UniProt P25685 1-340) (other; other documents disagree on this pair)
– | binds | ΔJ-DNAJB1 (truncated DNAJB1 lacking the J-domain and G/F linker) (from UniProt P25685 161-340) (domain or fragment)
